At least one structure is not confirmed: it was looked up by name or label, or the drawing left a doubt.
Assay: Pharmacokinetics of 4-hydroxy tamoxifen gel in healthy premenopausal women
Assay type: in vivo, human
Conditions: Second cycle

**Q.** Which “Plasma concentration of 4-hydroxy tamoxifen, Mean ± SD (Range)” value (shortened to “Plasma concentration … Mean ± SD (Range)”) (1 mg/day, gel 20 mg/100 g, n=8, +8 days) does the source give for `CCC(=C(c1ccc(O)cc1)c1ccc(OCCN(C)C)cc1)c1ccccc1` [4-hydroxy tamoxifen, 1-[4-(2-N-dimethylaminoethoxy)phenyl]-1-(4-hydroxyphenyl)-2-phenylbut-1-ene] here?
**A.** Its value is “(<LOQ-17.4)”.

**Q.** What about the “Plasma concentration … Mean ± SD (Range)” value (1 mg/day, gel 20 mg/100 g, n=8, +12 days) of the same compound?
**A.** The value was “(<LOQ-7.0)”.

**Q.** And the “Plasma concentration … Mean ± SD (Range)” value (1 mg/day, gel 57 mg/100 g, n=12, +12 days)?
**A.** Its value is “(0-<LOQ)”.

**Q.** And the “Plasma concentration … Mean ± SD (Range)” value (1 mg/day, gel 57 mg/100 g, n=12, +20 days)?
**A.** Its value is “(0-<LOQ)”.

**Q.** And the “Plasma concentration … Mean ± SD (Range)” value (2 mg/day, gel 57 mg/100 g, n=12, +20 days)?
**A.** Its value is “(0-<LOQ)”.

Source: patent US7968532B2 (Besins Healthcare Luxembourg, priority 2003, dated 2011)
